Source: patent US11981617B2, “Ketamine pamoate and use thereof” (Alar Pharmaceuticals Inc., priority 2019, dated 2024)
Structures can show the parent of a compound that is named as a salt. Some entries share one result that the patent states for a list of compounds.

Test system: DEX-treated mice
Experiment: Forced swimming test (FST) in DEX-induced depression-like animal model
Type: in vivo, ICR mice
Conditions: single injection, 120 mg/kg of ketamine free-base
Procedure: ICR mice were intraperitoneally injected with saline or DEX at postnatal day 1 to 3 (P1-P3) with dose decrement of 0.5 mg/kg, 0.3 mg/kg, and 0.1 mg/kg, respectively. The drugs for each group or saline were administered subcutaneously at postnatal day 35, P35 (i.e., dosing day 0, D0), and forced swimming test (FST) was conducted on dosing day 1 (D1, P36) and dosing day 10 (P45) after drug administration. Evaluation of sedation behavior was also conducted by sedation rating scale from the time immediately post injection to dosing day 14 (P49) after drug administration.
Neonatal ICR mice (BioLASCO, Taipei, Taiwan) were intraperitoneally injected with saline or DEX on postnatal day 1, 2, and 3 (P1, P2, and P3) at doses of 0.5 mg/kg, 0.3 mg/kg, and 0.1 mg/kg, respectively. […] The dugs were then subcutaneously injected into mice of the corresponding groups at postnatal day 35, while the mice of the Control and Saline groups were injected with equal volumes of 0.9% saline. Drugs for administration were prepared in phosphate-buffered saline (PBS), and then well mixed by high speed vortex before injection.
Antidepressant effects were evaluated by forced swimming test (FST), which performed on dosing day 1 (P36) and dosing day 10 (P45) after drug administration. The mice of all groups were trained for swimming before drug administration. During the FST, mice were individually placed into 5 L glass cylinders (height 27 cm, diameter 18 cm) filled with 4 L of water (23±1° C.). The total duration of immobility time during 5 minutes of FST was observed. Results were presented as mean±SEM. Student's t-test was utilized to analyze Saline group (DEX-treated mouse group injected with saline) versus the other groups at each time point. * p<0.05, ** p<0.01, and *** p<0.001 indicate significant differences compared to the Saline group.

Compound	duration of antidepressant effect on FST
R, S-ketamine pamoate [KEP]	at least 10 days
CN[C@@]1(c2ccccc2Cl)CCCCC1=O [R-KEP, R-ketamine pamoate]	at least 10 days
CNC1(c2ccccc2Cl)CCCCC1=O (stereo not shown) [KET, ketamine HCl, reference compound]	at least 10 days
CN[C@]1(c2ccccc2Cl)CCCCC1=O [S-KEP, S-ketamine pamoate]	at least 10 days
